Results: the supplement of paper PMC12067093, “Discovery and optimisation of a covalent ligand for TRIM25 and its application to targeted protein ubiquitination” (Chemical Science, 2025)
The other results are listed elsewhere or left out.

Protein sequences, listed by entry. Tags and fused reporters are not part of them. Lines headed by an entry give the natural chain unless they say otherwise; changes in a name come on top.
UniProt Q9H0W9: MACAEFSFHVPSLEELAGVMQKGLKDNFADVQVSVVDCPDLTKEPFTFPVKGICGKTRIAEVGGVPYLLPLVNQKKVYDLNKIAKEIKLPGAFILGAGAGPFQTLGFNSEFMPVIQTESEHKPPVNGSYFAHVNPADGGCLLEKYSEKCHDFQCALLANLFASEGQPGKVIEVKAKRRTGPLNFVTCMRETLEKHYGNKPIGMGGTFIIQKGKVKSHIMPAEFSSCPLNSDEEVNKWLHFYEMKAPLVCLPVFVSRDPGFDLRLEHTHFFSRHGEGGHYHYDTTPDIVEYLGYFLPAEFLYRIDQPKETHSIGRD
UniProt Q01518, whole entry, looked up: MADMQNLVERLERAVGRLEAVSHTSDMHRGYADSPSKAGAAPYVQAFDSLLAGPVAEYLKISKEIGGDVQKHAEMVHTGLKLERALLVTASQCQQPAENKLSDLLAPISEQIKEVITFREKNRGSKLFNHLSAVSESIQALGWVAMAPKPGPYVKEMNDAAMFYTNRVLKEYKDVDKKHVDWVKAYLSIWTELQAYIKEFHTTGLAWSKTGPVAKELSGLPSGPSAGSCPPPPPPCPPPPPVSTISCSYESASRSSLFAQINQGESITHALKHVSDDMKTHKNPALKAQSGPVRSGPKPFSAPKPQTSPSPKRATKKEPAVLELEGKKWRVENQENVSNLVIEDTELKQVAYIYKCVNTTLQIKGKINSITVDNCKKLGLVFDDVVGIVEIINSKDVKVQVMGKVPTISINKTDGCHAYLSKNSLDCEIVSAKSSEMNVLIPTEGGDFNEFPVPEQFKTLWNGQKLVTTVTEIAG
UniProt Q9Y6J0: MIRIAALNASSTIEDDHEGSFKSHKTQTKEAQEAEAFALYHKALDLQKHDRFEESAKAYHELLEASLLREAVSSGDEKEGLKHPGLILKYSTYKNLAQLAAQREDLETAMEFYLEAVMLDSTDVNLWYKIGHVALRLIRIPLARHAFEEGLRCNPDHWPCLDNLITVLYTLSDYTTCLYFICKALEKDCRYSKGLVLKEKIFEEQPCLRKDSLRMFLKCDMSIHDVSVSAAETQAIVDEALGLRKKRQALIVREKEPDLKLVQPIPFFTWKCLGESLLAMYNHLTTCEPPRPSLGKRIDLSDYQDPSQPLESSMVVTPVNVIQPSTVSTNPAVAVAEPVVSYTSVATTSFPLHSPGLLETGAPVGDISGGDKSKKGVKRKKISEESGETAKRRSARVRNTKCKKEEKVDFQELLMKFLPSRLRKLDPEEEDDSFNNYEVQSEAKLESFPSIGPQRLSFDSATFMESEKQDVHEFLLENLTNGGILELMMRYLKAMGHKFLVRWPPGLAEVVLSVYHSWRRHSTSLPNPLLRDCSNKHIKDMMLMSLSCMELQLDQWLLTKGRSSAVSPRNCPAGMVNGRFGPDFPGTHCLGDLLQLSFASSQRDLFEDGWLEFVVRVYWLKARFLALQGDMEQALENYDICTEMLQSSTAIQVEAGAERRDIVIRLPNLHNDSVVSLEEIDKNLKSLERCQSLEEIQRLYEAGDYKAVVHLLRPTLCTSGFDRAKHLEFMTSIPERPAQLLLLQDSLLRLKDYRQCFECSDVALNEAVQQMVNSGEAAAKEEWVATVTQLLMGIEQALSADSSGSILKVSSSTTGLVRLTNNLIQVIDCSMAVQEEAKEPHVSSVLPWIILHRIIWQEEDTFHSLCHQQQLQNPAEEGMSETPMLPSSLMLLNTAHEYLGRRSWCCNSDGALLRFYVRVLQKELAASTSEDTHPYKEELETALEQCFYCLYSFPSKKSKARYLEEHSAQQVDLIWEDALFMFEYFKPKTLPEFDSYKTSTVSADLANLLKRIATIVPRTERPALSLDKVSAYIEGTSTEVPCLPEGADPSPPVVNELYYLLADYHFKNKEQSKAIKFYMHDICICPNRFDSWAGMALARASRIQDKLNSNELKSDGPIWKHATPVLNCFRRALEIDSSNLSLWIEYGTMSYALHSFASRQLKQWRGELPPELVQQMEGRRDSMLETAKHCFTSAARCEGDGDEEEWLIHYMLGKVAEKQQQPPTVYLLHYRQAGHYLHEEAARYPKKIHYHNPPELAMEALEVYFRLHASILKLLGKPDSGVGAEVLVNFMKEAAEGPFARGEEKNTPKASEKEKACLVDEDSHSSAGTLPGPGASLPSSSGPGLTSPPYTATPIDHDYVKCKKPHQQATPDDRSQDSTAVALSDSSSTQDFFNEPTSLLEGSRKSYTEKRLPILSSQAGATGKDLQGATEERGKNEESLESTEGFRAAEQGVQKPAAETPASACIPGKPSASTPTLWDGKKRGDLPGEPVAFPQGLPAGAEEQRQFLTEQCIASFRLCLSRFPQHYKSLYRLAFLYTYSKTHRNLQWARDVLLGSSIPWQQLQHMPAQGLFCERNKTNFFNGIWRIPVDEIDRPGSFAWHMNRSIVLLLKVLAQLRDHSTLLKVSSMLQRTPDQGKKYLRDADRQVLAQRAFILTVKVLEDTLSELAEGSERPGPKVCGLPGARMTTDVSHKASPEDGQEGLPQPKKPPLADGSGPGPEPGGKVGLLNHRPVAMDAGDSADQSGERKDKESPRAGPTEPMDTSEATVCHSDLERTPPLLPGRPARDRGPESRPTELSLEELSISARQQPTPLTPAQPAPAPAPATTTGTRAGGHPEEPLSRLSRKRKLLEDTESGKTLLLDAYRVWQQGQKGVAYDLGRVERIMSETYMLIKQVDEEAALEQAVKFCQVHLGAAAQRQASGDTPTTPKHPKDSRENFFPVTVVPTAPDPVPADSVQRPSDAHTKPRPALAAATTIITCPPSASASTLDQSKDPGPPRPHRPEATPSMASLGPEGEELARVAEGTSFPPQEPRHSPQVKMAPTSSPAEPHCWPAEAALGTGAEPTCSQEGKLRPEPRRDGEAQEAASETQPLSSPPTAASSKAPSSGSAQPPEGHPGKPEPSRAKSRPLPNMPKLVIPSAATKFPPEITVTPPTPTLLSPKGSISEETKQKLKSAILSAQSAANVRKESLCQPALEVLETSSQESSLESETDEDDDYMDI
UniProt O14981: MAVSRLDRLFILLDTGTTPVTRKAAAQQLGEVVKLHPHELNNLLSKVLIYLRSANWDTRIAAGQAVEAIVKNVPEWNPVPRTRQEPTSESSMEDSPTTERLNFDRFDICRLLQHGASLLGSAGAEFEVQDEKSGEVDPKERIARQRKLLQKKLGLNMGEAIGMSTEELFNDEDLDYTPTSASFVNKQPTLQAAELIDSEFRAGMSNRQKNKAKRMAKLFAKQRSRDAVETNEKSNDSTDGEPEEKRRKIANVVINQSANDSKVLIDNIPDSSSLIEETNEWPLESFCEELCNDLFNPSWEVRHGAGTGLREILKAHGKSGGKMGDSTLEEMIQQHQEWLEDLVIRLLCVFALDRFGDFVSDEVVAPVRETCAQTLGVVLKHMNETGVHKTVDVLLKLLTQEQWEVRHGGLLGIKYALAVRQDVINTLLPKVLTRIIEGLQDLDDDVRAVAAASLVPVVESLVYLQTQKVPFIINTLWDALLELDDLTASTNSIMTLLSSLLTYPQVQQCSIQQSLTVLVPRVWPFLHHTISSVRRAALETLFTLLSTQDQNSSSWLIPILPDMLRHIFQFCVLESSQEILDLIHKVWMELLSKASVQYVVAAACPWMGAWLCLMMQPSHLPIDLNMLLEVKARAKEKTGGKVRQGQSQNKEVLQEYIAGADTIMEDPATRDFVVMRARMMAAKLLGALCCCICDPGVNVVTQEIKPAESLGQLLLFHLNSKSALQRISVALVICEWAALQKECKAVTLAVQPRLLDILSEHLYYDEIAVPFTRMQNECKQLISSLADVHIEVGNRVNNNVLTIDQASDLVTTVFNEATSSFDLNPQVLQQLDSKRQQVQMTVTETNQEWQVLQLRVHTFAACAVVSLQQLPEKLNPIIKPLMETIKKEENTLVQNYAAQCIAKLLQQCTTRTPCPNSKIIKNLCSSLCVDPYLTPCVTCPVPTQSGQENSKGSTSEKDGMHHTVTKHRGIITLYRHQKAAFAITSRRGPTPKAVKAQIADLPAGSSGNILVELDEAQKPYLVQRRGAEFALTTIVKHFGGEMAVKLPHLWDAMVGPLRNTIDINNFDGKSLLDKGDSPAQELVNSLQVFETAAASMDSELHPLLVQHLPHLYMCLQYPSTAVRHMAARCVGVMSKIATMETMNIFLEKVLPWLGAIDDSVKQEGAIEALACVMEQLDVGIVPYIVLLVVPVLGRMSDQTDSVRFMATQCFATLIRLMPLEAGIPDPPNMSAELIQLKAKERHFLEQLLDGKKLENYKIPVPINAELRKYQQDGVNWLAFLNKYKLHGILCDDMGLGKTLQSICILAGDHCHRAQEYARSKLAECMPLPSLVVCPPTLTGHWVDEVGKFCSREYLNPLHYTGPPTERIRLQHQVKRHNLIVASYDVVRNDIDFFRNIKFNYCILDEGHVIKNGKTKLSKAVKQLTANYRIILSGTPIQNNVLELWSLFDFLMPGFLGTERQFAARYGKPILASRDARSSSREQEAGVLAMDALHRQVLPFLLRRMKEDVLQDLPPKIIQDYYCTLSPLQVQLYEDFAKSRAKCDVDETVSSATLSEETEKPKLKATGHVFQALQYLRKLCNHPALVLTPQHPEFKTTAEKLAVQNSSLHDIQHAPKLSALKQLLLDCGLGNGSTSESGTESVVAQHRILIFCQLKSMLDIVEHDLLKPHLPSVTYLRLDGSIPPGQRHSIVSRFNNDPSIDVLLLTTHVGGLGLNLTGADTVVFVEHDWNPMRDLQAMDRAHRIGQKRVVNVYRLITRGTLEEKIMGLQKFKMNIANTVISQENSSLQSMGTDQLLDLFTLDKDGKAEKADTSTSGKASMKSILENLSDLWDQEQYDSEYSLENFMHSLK
UniProt Q13555: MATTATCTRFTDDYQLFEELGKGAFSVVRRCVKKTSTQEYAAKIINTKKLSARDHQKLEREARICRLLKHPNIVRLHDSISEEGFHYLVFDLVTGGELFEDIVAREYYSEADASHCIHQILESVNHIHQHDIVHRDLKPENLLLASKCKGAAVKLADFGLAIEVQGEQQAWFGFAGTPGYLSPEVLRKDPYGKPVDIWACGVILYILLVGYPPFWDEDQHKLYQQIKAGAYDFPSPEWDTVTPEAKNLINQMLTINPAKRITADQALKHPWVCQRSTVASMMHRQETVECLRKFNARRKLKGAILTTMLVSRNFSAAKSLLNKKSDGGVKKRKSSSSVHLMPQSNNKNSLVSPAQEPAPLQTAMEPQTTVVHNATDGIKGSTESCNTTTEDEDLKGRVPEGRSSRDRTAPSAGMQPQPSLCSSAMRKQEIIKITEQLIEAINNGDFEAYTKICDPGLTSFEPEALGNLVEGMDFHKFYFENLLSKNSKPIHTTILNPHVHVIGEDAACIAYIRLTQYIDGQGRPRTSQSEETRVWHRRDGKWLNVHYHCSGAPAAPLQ
UniProt Q8WUR7: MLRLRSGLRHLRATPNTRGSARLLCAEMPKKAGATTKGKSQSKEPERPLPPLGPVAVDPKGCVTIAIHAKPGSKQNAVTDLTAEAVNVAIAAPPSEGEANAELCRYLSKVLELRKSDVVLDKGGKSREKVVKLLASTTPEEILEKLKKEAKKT

What follows are targets tested with Cc1cc(ccc1-c1ccccc1)C(=O)N1CCCN(CC1)C(=O)CCl [compound 10] (assay: probe-labelled cysteine peptide fold change vs DMSO (competition) (log2 fold change); higher = less target engagement (more negative = stronger competition)). Details: 50 µM; THP-1; incubation time: 4 h.
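Note: competitive profiling in live THP-1 cells: cysteine peptides tagged with an iodoacetamide desthiobiotin (IA-DTB) probe, intensity after compound treatment relative to DMSO-treated cells.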

| Target | probe-labelled cysteine peptide fold change |
| --- | --- |
| BTF3_P20290_22_GGCPGGEATLSQPPPR (UniProt P20290) | -0.255 |
| BUD31_P41223_139_IIECTHCGCR (UniProt P41223) | -0.0284 |
| BRI3_O95415_78_YPANSIVVVGGCPVCR (UniProt O95415) | -0.111 |
| BRD7_Q9NPI1_338_LVNSQCEFER (UniProt Q9NPI1) | 0.0427 |
| BZW2_Q9Y6E2_270_LSQECPIK (UniProt Q9Y6E2) | -0.258 |
| C16orf62_Q7Z3J2_925_HGCADTR (UniProt Q7Z3J2) | -0.0505 |
| CAMKV_Q8NCB2_181_EPCGTPEYLAPEVVGR (UniProt Q8NCB2) | -0.11 |
| C11orf54_Q9H0W9_226_SHIMPAEFSSCPLNSDEEVNK (UniProt Q9H0W9) | -0.12 |
| CANX_P27824_160_PFLFDTKPLIVQYEVNFQNGIECGGAYVK (UniProt P27824) | 0.423 |
| CAP1_Q01518_356_CVNTTLQIK (UniProt Q01518) | 0.165 |
| CAP1_Q01518_375_GKINSITVDNCK (UniProt Q01518) | 0.204 |
| CABIN1_Q9Y6J0_589_FGPDFPGTHCLGDLLQLSFASSQR (UniProt Q9Y6J0) | -0.594 |
| BTAF1_O14981_1626_QLLLDCGLGNGSTSESGTESVVAQHR (UniProt O14981) | 0.287 |
| CAP1_Q01518_375_GKINSITVDNCKK (UniProt Q01518) | -0.947 |
| BTAF1_O14981_1209_FMATQCFATLIR (UniProt O14981) | 0.229 |
| CAMK2G_Q13555_549_WLNVHYHCSGAPAAPLQ (UniProt Q13555) | -0.0639 |
| CALR_P27797_105_HEQNIDCGGGYVK (UniProt P27797) | 0.195 |
| C15orf40_Q8WUR7_62_GCVTIAIHAK (UniProt Q8WUR7) | -0.0437 |
| C8orf88_P0DMB2_93_LSSVSICR (UniProt P0DMB2) | -0.797 |
| C6orf120_Q7Z4R8_99_GDADLYVSASSLHPSFDDYELQSATCGPDAVSIPAHFR (UniProt Q7Z4R8) | 0.205 |
| CAMSAP1_Q5T5Y3_1507_CDANHYIILFR (UniProt Q5T5Y3) | -0.118 |
| C15orf39_Q6ZRI6_831_CPFPHVVR (UniProt Q6ZRI6) | -0.937 |
